# Results reported in the supplement of paper PMC7666118.
# Sequences of proteins named here, by UniProt entry; tags and fusion partners are left off. A change or cut given only in a name is not applied to a line headed by its entry.
# UniProt Q7LDG7: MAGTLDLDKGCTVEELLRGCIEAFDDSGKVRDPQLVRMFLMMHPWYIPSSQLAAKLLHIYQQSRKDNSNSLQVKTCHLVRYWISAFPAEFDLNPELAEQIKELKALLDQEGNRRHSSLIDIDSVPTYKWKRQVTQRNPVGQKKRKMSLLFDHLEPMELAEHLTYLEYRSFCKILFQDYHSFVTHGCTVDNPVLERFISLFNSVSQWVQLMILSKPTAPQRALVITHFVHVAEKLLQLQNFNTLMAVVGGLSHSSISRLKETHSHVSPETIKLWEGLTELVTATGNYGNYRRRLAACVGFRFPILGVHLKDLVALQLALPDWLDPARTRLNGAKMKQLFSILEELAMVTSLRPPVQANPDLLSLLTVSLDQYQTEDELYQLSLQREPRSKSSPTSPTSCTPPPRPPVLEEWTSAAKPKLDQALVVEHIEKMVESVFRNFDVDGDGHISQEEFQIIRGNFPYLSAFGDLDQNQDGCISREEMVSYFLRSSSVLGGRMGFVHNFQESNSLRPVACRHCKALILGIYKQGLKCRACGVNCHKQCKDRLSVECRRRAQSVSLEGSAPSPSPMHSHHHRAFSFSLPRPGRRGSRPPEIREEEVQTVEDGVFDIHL
# UniProt Q6WKZ4: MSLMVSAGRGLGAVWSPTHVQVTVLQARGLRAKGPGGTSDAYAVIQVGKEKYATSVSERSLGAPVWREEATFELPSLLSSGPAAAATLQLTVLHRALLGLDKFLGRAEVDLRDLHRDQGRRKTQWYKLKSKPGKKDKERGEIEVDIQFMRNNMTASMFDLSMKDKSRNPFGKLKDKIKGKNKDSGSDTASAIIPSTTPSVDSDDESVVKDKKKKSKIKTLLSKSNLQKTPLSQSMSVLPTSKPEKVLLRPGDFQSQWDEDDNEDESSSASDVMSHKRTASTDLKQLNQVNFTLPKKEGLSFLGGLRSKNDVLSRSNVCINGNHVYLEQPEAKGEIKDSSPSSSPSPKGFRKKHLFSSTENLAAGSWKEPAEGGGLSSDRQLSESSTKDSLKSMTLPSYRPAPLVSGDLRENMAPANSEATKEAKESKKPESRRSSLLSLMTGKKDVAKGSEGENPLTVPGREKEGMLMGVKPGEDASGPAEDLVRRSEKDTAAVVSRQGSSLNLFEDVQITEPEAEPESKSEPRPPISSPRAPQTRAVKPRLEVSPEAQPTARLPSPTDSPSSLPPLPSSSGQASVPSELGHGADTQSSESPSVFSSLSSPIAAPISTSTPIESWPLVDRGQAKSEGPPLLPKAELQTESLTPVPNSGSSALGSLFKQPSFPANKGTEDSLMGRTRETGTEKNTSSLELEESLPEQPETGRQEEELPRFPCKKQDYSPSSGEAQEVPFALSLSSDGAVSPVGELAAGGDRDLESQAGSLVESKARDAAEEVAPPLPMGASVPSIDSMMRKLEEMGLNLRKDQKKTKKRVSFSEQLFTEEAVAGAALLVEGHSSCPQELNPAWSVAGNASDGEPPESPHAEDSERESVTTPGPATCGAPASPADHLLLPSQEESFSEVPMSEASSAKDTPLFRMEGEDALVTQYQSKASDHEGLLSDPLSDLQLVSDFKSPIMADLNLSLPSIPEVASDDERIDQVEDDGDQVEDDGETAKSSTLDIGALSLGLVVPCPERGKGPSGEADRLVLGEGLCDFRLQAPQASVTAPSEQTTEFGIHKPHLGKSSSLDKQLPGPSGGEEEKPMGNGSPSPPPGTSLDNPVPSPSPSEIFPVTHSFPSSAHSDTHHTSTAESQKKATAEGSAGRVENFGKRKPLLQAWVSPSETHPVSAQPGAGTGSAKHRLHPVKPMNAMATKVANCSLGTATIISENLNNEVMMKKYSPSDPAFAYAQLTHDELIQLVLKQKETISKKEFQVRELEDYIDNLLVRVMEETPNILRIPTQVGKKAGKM
# UniProt O75771: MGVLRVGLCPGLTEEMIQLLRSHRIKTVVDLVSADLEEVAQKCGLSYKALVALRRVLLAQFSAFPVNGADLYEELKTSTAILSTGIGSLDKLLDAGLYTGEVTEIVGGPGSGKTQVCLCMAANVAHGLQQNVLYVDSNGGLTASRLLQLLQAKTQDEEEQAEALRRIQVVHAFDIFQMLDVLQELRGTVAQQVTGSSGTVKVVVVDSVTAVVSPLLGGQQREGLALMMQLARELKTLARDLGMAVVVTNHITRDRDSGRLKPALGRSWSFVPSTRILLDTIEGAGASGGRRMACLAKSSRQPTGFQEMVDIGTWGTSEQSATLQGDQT
# UniProt P10586, whole entry: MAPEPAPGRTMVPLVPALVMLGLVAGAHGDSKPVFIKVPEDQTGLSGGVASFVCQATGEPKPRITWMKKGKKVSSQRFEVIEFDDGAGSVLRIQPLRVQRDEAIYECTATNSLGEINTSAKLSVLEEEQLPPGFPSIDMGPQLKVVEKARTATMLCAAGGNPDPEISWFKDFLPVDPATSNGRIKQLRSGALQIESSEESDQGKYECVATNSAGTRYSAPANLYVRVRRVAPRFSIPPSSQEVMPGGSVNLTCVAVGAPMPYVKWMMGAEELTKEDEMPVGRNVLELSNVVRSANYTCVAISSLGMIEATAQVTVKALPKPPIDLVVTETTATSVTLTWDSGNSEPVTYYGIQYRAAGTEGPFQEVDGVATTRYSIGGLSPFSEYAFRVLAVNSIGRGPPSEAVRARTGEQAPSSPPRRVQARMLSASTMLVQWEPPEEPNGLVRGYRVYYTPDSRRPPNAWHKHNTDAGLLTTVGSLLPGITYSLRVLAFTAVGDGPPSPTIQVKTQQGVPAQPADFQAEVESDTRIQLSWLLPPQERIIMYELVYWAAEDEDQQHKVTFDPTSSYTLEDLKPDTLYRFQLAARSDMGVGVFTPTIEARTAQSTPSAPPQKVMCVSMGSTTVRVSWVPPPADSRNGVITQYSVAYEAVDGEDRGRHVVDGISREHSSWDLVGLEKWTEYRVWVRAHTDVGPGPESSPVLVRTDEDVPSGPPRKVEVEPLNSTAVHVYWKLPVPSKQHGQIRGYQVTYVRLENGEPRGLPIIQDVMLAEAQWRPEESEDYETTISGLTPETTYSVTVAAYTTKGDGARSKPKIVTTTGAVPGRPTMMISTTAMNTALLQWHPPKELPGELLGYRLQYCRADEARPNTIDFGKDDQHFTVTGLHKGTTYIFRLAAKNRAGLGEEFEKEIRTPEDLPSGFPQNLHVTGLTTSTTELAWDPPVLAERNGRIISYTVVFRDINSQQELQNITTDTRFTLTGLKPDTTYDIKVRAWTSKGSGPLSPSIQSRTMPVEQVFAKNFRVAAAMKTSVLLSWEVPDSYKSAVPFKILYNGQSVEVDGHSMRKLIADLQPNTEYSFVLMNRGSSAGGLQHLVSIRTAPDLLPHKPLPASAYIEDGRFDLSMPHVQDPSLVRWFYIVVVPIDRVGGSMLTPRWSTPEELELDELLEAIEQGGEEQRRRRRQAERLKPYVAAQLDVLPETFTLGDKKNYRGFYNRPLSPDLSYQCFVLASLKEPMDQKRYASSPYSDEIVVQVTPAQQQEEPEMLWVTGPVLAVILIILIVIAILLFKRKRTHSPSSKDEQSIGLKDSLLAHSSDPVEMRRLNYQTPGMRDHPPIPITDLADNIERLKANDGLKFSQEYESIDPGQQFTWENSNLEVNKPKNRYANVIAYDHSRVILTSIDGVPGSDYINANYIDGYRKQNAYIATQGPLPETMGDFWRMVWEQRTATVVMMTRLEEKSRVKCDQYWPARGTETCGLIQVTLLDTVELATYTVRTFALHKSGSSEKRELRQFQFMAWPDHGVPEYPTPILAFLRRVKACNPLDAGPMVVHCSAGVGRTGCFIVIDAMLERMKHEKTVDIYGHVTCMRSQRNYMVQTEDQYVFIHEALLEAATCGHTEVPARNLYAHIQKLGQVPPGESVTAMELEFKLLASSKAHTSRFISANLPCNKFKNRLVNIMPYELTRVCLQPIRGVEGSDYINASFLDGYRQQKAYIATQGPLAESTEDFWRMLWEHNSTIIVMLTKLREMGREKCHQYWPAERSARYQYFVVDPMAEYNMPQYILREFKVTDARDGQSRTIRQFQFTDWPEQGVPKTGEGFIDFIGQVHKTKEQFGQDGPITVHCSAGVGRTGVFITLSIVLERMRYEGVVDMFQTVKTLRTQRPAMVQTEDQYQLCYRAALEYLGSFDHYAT
# UniProt P51148: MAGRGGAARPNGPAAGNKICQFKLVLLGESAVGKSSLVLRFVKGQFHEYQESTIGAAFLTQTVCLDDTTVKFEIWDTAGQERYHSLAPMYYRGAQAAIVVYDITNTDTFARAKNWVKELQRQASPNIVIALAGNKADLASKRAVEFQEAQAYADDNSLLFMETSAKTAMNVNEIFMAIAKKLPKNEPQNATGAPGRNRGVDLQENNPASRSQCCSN
# UniProt Q8WUD1: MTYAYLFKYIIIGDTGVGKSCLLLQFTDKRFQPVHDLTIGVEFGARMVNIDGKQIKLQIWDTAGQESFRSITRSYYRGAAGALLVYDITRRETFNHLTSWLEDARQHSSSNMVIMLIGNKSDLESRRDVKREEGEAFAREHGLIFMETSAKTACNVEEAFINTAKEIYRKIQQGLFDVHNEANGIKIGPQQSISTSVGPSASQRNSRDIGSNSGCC
# UniProt Q14671: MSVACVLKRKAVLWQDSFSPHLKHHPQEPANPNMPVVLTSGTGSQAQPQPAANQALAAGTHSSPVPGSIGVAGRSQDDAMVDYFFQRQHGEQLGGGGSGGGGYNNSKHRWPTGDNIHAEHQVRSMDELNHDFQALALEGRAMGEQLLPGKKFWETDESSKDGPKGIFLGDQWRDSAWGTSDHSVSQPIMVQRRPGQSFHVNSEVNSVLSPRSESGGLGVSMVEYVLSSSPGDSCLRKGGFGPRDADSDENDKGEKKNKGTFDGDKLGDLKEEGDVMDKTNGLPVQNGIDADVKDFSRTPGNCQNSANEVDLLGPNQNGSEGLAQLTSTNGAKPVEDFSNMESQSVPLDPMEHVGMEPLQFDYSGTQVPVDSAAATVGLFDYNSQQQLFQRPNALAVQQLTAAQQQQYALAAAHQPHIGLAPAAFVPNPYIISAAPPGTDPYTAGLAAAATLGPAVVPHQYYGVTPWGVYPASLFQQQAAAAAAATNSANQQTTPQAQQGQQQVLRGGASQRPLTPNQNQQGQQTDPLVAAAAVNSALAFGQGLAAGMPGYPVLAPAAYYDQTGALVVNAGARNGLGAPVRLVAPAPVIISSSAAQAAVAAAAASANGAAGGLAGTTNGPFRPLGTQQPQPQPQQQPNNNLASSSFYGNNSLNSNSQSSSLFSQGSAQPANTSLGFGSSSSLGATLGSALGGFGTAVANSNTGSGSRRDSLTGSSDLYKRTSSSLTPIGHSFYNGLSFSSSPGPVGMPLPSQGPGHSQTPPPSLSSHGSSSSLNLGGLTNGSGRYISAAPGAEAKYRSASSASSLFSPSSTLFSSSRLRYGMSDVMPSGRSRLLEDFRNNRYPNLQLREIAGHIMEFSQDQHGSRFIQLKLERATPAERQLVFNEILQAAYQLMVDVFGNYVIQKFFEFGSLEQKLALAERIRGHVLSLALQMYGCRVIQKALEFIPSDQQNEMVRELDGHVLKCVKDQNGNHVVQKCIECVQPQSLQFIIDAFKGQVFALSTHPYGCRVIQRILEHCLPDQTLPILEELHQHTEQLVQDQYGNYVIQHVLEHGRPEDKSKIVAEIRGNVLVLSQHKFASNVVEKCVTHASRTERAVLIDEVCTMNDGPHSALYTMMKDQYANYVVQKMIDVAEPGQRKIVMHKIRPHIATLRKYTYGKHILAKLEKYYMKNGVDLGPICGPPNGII
# UniProt Q9H0U4: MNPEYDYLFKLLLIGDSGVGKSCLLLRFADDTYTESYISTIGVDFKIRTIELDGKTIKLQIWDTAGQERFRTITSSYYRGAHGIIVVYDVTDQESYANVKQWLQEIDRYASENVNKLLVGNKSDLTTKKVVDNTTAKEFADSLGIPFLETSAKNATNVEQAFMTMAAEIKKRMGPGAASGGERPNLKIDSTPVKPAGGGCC
# UniProt Q9UBK7: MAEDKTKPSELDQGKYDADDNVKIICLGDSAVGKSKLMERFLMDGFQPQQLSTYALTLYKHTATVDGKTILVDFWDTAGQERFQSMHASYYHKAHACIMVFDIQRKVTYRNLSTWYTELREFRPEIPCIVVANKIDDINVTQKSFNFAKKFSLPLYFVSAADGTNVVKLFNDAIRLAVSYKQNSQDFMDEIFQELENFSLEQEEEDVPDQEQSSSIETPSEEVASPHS
# UniProt P98179: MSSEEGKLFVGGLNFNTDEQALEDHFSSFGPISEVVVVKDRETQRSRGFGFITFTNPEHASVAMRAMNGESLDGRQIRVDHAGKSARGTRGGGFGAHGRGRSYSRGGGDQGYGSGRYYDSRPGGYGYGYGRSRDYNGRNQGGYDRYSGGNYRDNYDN
# UniProt P25787: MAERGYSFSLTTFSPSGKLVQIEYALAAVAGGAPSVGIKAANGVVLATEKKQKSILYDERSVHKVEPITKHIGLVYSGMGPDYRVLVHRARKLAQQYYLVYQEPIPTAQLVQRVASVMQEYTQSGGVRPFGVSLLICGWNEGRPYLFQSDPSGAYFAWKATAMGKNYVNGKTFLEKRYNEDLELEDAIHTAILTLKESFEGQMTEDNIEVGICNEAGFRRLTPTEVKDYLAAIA
# Some of the results follow.
# Compound: COc1ccc(Cn2ccc3ccc(C(=O)NO)cc32)cc1
# Assay: dose-dependent thermal stabilisation call (2D-TPP, DLPTP, 10% FDR) (binary (1 = stabilised)); higher = stabilised by the compound
# Conditions: system: HL-60 intact cells; concentration range 0.04-10 µM
row,Target,dose-dependent thermal stabilisation call
1,PSMB6 (UniProt P28072),inactive: 0
2,PRPF4B,inactive: 0
3,RASGRP2 (UniProt Q7LDG7),inactive: 0
4,RANBP6 (UniProt O60518),inactive: 0
5,RAB11FIP1 (UniProt Q6WKZ4),inactive: 0
6,RAD51L3 (UniProt O75771),inactive: 0
7,PTPRF (UniProt P10586),inactive: 0
8,RAB5C (UniProt P51148),inactive: 0
9,RAB27A (UniProt P51159),inactive: 0
10,RAD9A (UniProt Q99638),inactive: 0
11,RAB6B (UniProt Q9NRW1),inactive: 0
12,RAD54L2 (UniProt Q9Y4B4),inactive: 0
13,PUSL1 (UniProt Q8N0Z8),inactive: 0
14,RAB2B (UniProt Q8WUD1),inactive: 0
15,RAN (UniProt P62826),inactive: 0
16,PSMB10 (UniProt P40306),inactive: 0
17,RARS (UniProt P54136),inactive: 0
18,PUM1 (UniProt Q14671),inactive: 0
19,RAB1B (UniProt Q9H0U4),inactive: 0
20,RASA3 (UniProt Q14644),inactive: 0
21,PTPN13 (UniProt Q12923),inactive: 0
22,QARS,inactive: 0
23,QKI (UniProt Q96PU8),inactive: 0
24,PTGS1 (UniProt P23219),inactive: 0
25,RABL2A (UniProt Q9UBK7),inactive: 0
26,RBM3 (UniProt P98179),inactive: 0
27,RBL2 (UniProt Q08999),inactive: 0
28,PSMA2 (UniProt P25787),inactive: 0

# Part of the list above, with bars between the fields:
row | Target | dose-dependent thermal stabilisation call
7 | PTPRF (UniProt P10586) | inactive: 0
8 | RAB5C (UniProt P51148) | inactive: 0
